Test results reported in patent US20250269031A1, “MITOCHONDRIA TARGETING QUINOLINIUM-DRUG CONJUGATES AND THEIR SELF-ASSEMBLING NANOFORMULATIONS FOR CANCER THERAPY” (THE REGENTS OF THE UNIVERSITY OF CALIFORNIA, priority 2020, published 2025).
Some entries share one result that the patent states for a list of compounds.

Test system: GL261 cells
Test: Cell viability assay (CellTiter-Glo), GL261
Format: cell-based, murine
Settings: GL261, absence of light irradiation

Work on pheophorbide a [PA] yielded an IC50 greater than 90 µM.
